Measured values from patent US10973849B2, “Rhenium complexes and methods of use for treating cancer” (CORNELL UNIVERSITY, priority 2016, dated 2021).

The molecules below were run on human cervical cancer cells (HeLa) (assay: In vitro anticancer activity (MTT) of [Re(CO)3(N—N)(H2O)][OTf] complexes in HeLa cells). Conditions: steepness of the dose-response curve.
Format: cell-based
Procedure: HeLa (cervical cancer) cell line was cultured using Dulbecco's Modified Eagle's Medium (DMEM) supplemented with 10% fetal bovine serum (FBS). A2780 (ovarian cancer) and A2780CP70 (cisplatin-resistant ovarian cancer) cell lines were cultured as monolayers with Roswell Park Memorial Institute (RPMI)-1640 culture media supplemented with 10% fetal bovine serum. All cell lines were grown in a humidified incubator at 37° C. with an atmosphere of 5% CO2. Cells were passed at 80-90% confluence, using trypsin/EDTA. Cells were tested monthly for mycoplasma contamination with the PlasmoTest™ mycoplasma detection kit from InvivoGen.
All compounds were dissolved in phosphate-buffered saline (PBS, pH 7.4) to prepare a 1-2 mM stock solution. For single dose studies, only HeLa cells were used. For both the single dose and full dose response, all cells were grown to 80-90% confluence, detached with trypsin/EDTA, seeded in 96-well plates at 2000 cells/well for HeLa cells and 4000 cells/well for A2780 and A2780CP70 cells in 100 μL of growth media, and incubated for 24 hours. The medium was removed and replaced with fresh medium (200 μL) containing a single concentration of a rhenium(I) complex or media. The cells were then incubated for 4 hours, and then the cells were dosed with 365 nm for 1 hour (one plate under the same dosing conditions was kept outside the incubator in the dark as a control). After exposure to light, the plates incubated for an additional 44 hours, the medium was removed from the wells, and (3(4,5-dimethylthiazol-2-yl)-2,5-tetrazolium bromide (MTT) in RPMI (200 μL, 1 mg/mL) was added. After 4 hours, the MTT/RPMI solution was removed, and the formazan crystals were dissolved in 200 μL of an 8:1 mixture of DMSO and pH 10 glycine buffer. The absorbance at 570 nm in each well was measured using a BioTek Synergy™ HT plate reader. Cell viability was determined by normalizing the absorbance of the treated wells to untreated wells. All compounds that had less than 50% cell viability were analyzed using a full dose response. The % viability data is an average of three independent experiments with six replicates per concentration. The same procedure was followed as above for the full dose response but instead, after 24 hours, varying concentrations of the desired compounds were added. Cell viability was again determined by normalizing the absorbance of the treated wells to untreated wells The concentration of the compound versus % viability was plotted to produce dose-response curves, which were analyzed using a logistic sigmoid function fit with MagicPlot Pro™ software. The reported IC50 values are the average of three independent experiments with six replicates per concentration level.
The in vitro anticancer activities of these complexes were tested in human cervical cancer cells (HeLa), and the results are provided below in Table 1. […] The Hill-Slope is a quantitative measure of the steepness of the dose-response curve.

Molecule	Hill Slope
Cc1ccc2ccc3ccc(C)nc3c2n1.O.O=S(=O)([O-])C(F)(F)F.[C-]#[O+].[C-]#[O+].[C-]#[O+].[Re+] [2,9-dimethyl phen, [Re(CO)3(N—N)(H2O)][OTf]]	3.3 ± 0.7
N.N.[Cl][Pt][Cl] [cisplatin, reference compound]	0.87 ± 0.14
[Re(CO)3(N—N)(H2O)][OTf] [4,4′-dimethoxy bpy]	2.3 ± 0.9
[Re(CO)3(N—N)(H2O)][OTf] [4,4′-dimethyl bpy]	2.0 ± 0.8
[Re(CO)3(N—N)(H2O)][OTf] [4,4′dimethylester bpy]	9.3 ± 4.6
[Re(CO)3(N—N)(H2O)][OTf] [4,7-diphenyl phen]	0.86 ± 0.13
[Re(CO)3(N—N)(H2O)][OTf] [bpy]	2.0 ± 0.3
[Re(CO)3(N—N)(H2O)][OTf] [phen]	4.8 ± 2.4
